# In US6569993 (dated 2003):
# Assay: general procedure: hybrid (solid and solution phase) peptide synthesis; chlorotrityl resin, Rink acid resin and Rink amide resin (preferred); Gly-2-chlorotrityl resin 0.6 meq/g for the fragmen; PyBOP/hydroxybenzotriazole hydrate/diisopropylethyl amine; HBTU/N-methylmorpholi
# Conditions: whole synthesis
Substance,crude HPLC purity (HPLC area % (UV at 210 nM)),crude yield (from resin),final purity (method not given) (HPLC area % (UV at 210 nM)),isolated yield (on resin),crude yield (stoichiometric)
Fmoc-Ala-Val-Ser(OtBu)-Glu(OtBu)-Ile-Gln(Trt)-Leu-Nle-His(Trt)-Asn(Trt)-Leu-Gly-OH,83A %,70% yld. from resin,,,
Fmoc-cyclo(Lys-Asp)Lys-Glu(OtBu)-Arg(Pmc)-Val-Asp-OH,,,85A %,15% yield based on resin,"41% stoich. yield, crude"
